Consider two molecules from paper PMC3630190.

This assay has as its target β-tubulin (mouse (endogenous in C3H10T1/2)). Put plainly: co-IP; 100 µg whole cell extract of transfected C3H10T1/2 cells (50 mM Tris/HCl pH 8.0, 120 mM NaCl, 0.5% NP-40, 1 mM EDTA); endogenous acetylated tubulin, Smo or β-tubulin immunoprecipitated overnight at 4°C with antibody and Protein A/G+ or G+ agarose; tagged RGS protein detected by α-FLAG or α-HA immunoblot. For orientation: A western blot detects proteins with antibodies after separation by electrophoresis.

These are yes or no findings as the source states them, for the method shown. In cells and extracts the contact can be indirect. Where a sequence is shown, tags or fusion partners need not be part of it.

B1: FL-hRGS5 (human Regulator of G-Protein Signaling 5 with an N-terminal FLAG epitope tag) (protein, UniProt O15539 1-181)
chain: MCKGLAALPHSCLERAKEIKIKLGILLQKPDSVGDLVIPYNEKPEKPAKTQKTSLDEALQWRDSLDKLLQNNYGLASFKSFLKSEFSEENLEFWIACEDYKKIKSPAKMAEKAKQIYEEFIQTEAPKEVNIDHFTKDITMKNLVEPSLSSFDMAQKRIHALMEKDSLPRFVRSEFYQELIK
In the case of B1, the binding result is “no binding”.

B2: hRGS5-FL (human Regulator of G-Protein Signaling 5 with a C-terminal FLAG epitope tag) (protein, UniProt O15539 1-181)
chain: MCKGLAALPHSCLERAKEIKIKLGILLQKPDSVGDLVIPYNEKPEKPAKTQKTSLDEALQWRDSLDKLLQNNYGLASFKSFLKSEFSEENLEFWIACEDYKKIKSPAKMAEKAKQIYEEFIQTEAPKEVNIDHFTKDITMKNLVEPSLSSFDMAQKRIHALMEKDSLPRFVRSEFYQELIK
For the molecule B2, the binding entry is reported as “no binding”.
